Measured values as given in PubChem BioAssay (NCATS).
The inconclusive results got no clear call from the source; some entries with a clear call stand among them for comparison. Where the call is inconclusive, the potency comes from a doubtful curve fit. The source made the active and inactive calls. The call rests on the fitted dose curve; in most records, active means well fitted cell-killing curve with a large enough effect; inconclusive means small, poorly fitted or top-dose-only effect, or effect the other way; inactive means no such curve, though single readings can be large or run the other way.

Assay: Quantitative highthroughput screen to assess conditional lethalithy of NOMO1 cells grown in Human Plasma-Like Medium with dialyzed fetal bovine serum (HPLM+ds) (AID 1963878); further: nearly all actives have a fitted effect of over 35% in size;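 on viability: 100% = DMSO wells and 0% = empty wells on each plate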
Details: NOMO1 AML cells in HPLM+ds, CellTiter-Glo viability, 48 h; viability: at 45.8 µM (top of the series)
Method in brief: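 Each medium arm—HPLM with 10% dialyzed FBS, or RPMI1640 with 5 mM glucose and 10% untreated or dialyzed FBS—was screened against an 11-point, 3-fold compound titration for 48 h at 37 °C, with CellTiter-Glo luminescence as endpoint.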
Potency means the concentration at half of the fitted maximal effect.

| Compound | Potency | viability |
| --- | --- | --- |
| CC(=Cc1ccccc1)C=C1SC(=S)N(CC(=O)O)C1=O | inconclusive: 9.35 µM [cytotoxic, single point] |  |
| CC1(C)[C@H](O[C@H]2O[C@H](C(=O)O)[C@@H](O)[C@H](O)[C@H]2O[C@@H]2O[C@H](C(=O)O)[C@@H](O)[C@H](O)[C@H]2O)CC[C@@]2(C)[C@H]1CC[C@]1(C)[C@H]2C(=O)C=C2[C@H]3C[C@@](C)(C(=O)O)CC[C@]3(C)CC[C@]21C | inconclusive: 0.0012 µM [rising, full curve] |  |
| C[C@H](CCC(=O)O)[C@H]1CC[C@H]2[C@@H]3[C@H](O)C[C@@H]4C[C@H](O)CC[C@]4(C)[C@@H]3CC[C@]12C |  | inactive: 114% |
| CCCn1c(=O)c2[nH]c(C34CC5CC3C[C@@H](C5)C4)nc2n(CCC)c1=O |  | inactive: 117% |
| COc1ccc(C=CC(=O)Nc2ccccc2C(=O)O)cc1OC | inconclusive: 1.18 µM [cytotoxic, full curve, poor fit] |  |
| OCCn1cc(-c2ccc3c(c2)CCC3=NO)c(-c2ccncc2)n1 |  | inactive: 81.2% |
| CC1(C)CCC[C@@]2(C)[C@@H]1CC[C@@]1(C)OC(=O)C[C@H]21 |  | inactive: 97.6% |
| CC=C(C(=CC)c1ccc(O)cc1)c1ccc(O)cc1 |  | inactive: 86.5% |
| CC[C@H]1OC(=O)[C@H](C)C(=O)[C@H](C)[C@@H](O[C@H]2O[C@H](C)C[C@H](N(C)C)[C@@H]2O)[C@](C)(OC)C[C@@H](C)C(=O)[C@H](C)[C@H]2N(CCCCn3cnc(-c4cccnc4)c3)C(=O)O[C@]12C |  | inactive: 96.4% |
| O=C1c2c(O)cccc2[C@@H]([C@@H]2O[C@H](CO)[C@@H](O)[C@H](O)[C@H]2O)c2cc(CO)cc(O)c21 |  | inactive: 94.6% |
| O=C1NCCc2[nH]c(-c3ccncc3)cc21 | active: 18.7 µM |  |
| C=C1[C@H](n2cnc3c(=O)[nH]c(N)nc32)C[C@H](O)[C@H]1CO | active: 4.18 µM |  |
| O=C(C=Cc1cccc(S(=O)(=O)Nc2ccccc2)c1)NO | active: 13.6 µM |  |
| CC=CC1=C(C(=O)O)N2C(=O)[C@H](NC(=O)[C@H](N)c3ccc(O)cc3)[C@@H]2SC1 | inconclusive: 1.48 µM [cytotoxic, full curve] |  |
| O=C(O)CCCc1c[nH]c2ccccc12 |  | inactive: 54.8% |
| CC(C)c1onc(-c2c(Cl)cccc2Cl)c1COc1ccc(C=Cc2cccc(C(=O)O)c2)c(Cl)c1 |  | inactive: 88.1% |
| CN[C@H]1[C@@H](O)[C@@H]2O[C@@H]3O[C@H](C)CC(=O)[C@]3(O)O[C@@H]2[C@@H](NC)[C@H]1O | inconclusive: 18.7 µM [cytotoxic, partial curve] |  |
| CCCCCOC(=O)Nc1nc(=O)n([C@@H]2O[C@H](C)[C@@H](O)C2O)cc1F (some centres undefined) |  | inactive: 98.9% |
| NC1=N[C@H]2[C@H](CS[C@H]2CCCCC(=O)O)N1 | inconclusive: 0.0009 µM [rising, full curve, poor fit] |  |
| O=C(C=Cc1c(C(=O)O)[nH]c2cc(Cl)cc(Cl)c12)Nc1ccccc1 |  | inactive: 89.8% |
| O=C1Cc2cc(CCN3CCN(c4nsc5ccccc45)CC3)c(Cl)cc2N1 | inconclusive: 37.2 µM [cytotoxic, partial curve, poor fit] |  |
| Cc1ccc(CN2CCNCC2)cc1NC(=O)CNc1ccc(F)c(F)c1 |  | inactive: 112% |
| COC(=O)[C@@H]1CC2=CC(=O)CC[C@]2(C)[C@@]23O[C@@H]2C[C@@]2(C)[C@H](CC[C@@]24CCC(=O)O4)[C@@H]13 |  | inactive: 99.7% |
| CC(C)=CCCC(C)=CCCC(C)=CCCC(C)=CCCC(C)=CCCC(C)=CCCC(C)=CCCC(C)=CCCC(C)=CCO |  | inactive: 108% |

A run of entries from the list above, as a working copy:

| Compound | Potency | viability |
| --- | --- | --- |
| NC1=N[C@H]2[C@H](CS[C@H]2CCCCC(=O)O)N1 | inconclusive: 0.0009 µM [rising, full curve, poor fit] |  |
| O=C(C=Cc1c(C(=O)O)[nH]c2cc(Cl)cc(Cl)c12)Nc1ccccc1 |  | inactive: 89.8% |
| O=C1Cc2cc(CCN3CCN(c4nsc5ccccc45)CC3)c(Cl)cc2N1 | inconclusive: 37.2 µM [cytotoxic, partial curve, poor fit] |  |
| Cc1ccc(CN2CCNCC2)cc1NC(=O)CNc1ccc(F)c(F)c1 |  | inactive: 112% |
| COC(=O)[C@@H]1CC2=CC(=O)CC[C@]2(C)[C@@]23O[C@@H]2C[C@@]2(C)[C@H](CC[C@@]24CCC(=O)O4)[C@@H]13 |  | inactive: 99.7% |
